Measurements reported in PubChem BioAssay AID1259331 (Drosophila RNAi Screening Center, 2017)
Assay: 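Knock-downs that alter ATP level after a high zinc chloride dose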 (primary screen). System: Drosophila S2R+ cells. Knock-down reagent: long dsRNA against Drosophila genes. Time to read-out: 5 days (4 days knock-down, then 1 day zinc). Conditions: zinc chloride at 15 mM final level for 1 day. Read-out: 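Total cellular ATP measured by luciferase luminescence as a viability proxy, turned into Z scores from three plate copies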. Scale: mean Z score: higher = more ATP than other wells, better survival under zinc; ATP luminescence: higher = more ATP, more viable cells. Rule for the call: 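a reagent is called a hit when its Z score is above 1.5 or below -1.5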. Calls: active = hit, ATP up or down; inactive = not a hit.
Shown is one part, drawn at random, of about 3,100 reagents tested. 126 of all reagents (4.1%) were called active. 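Calls are per reagent; zinc was so toxic that few knock-downs lowered ATP further, so most hits raise ATP.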 The raw values are shown without normalisation. A number with no mark means an inactive call. The numbers tell different reagents against one gene apart. Names joined by + are all predicted targets of the reagent. Not stated in the record: the amount of reagent.

| gene knocked down | reagent | mean Z score | ATP luminescence, replicate 1 | ATP luminescence, replicate 2 |
| --- | --- | --- | --- | --- |
| ppk | 1 | 0.0558 | 50223 | 45320 |
| ppk | 2 | 0.205 | 57700 | 60581 |
| ppk16 | 1 | 0.0718 | 54184 | 42679 |
| fend | 1 | -0.32 | 62021 | 67457 |
| fend | 2 | -0.897 | 49898 | 52487 |
| Rdl | 1 | -0.419 | 29685 | 27610 |
| Rdl | 2 | 0.18 | 67252 | 63479 |
| Trpm | 1 | 0.0305 | 31605 | 33404 |
| Trpm | 2 | 0.0765 | 57837 | 63687 |
| Trpm | 3 | -1 | 49092 | 42662 |
| beta4GalT7 | 1 | -0.423 | 41188 | 56019 |
| Or22c | 1 | -0.0961 | 43691 | 44994 |
| Or22c | 2 | -0.0463 | 63667 | 53502 |
| Nct | 1 | -0.499 | 39233 | 41462 |
| Nct | 2 | -0.82 | 51887 | 46091 |
| MstProx + Mst84Da | 1 | -0.0564 | 73186 | 58577 |
| Sema5c | 1 | 0.372 | 82467 | 67602 |
| Sema5c | 2 | 0.168 | 68949 | 47137 |
| CG1572 | 1 | 0.00952 | 47137 | 46554 |
| CNMaR | 1 | -0.424 | 36302 | 39062 |
| CNMaR | 2 | -0.197 | 72903 | 58421 |
| mthl11 | 1 | -0.338 | 37605 | 51544 |
| mthl11 | 2 | -0.454 | 55203 | 53571 |
| Cse1 | 1 | 6.7 (active) | 1.57e5 | 1.45e5 |
| CG13325 | 1 | -0.274 | 31896 | 27868 |
| CG13325 | 2 | -0.328 | 56808 | 51355 |
| Osi10b | 1 | -0.0308 | 77834 | 60152 |
| Osi10b | 2 | 0.0785 | 66649 | 57271 |
| Fas2 | 1 | 2.76 (active) | 71419 | 73169 |
| Fas2 | 2 | -0.175 | 73615 | 69361 |
| Fas2 | 3 | -0.512 | 40530 | 38539 |
| CG4607 | 1 | -0.398 | 59877 | 59003 |
| CCAP-R | 1 | -0.142 | 42591 | 41668 |
| CCAP-R | 2 | -0.16 | 35050 | 53807 |
| CCAP-R | 3 | 0.202 | 63101 | 65948 |
| Rh5 | 1 | -0.213 | 50429 | 56187 |
| Rh5 | 2 | 0.214 | 58092 | 63119 |
| mthl2 | 1 | -0.287 | 70665 | 57940 |
| mthl2 | 2 | -0.54 | 43474 | 50315 |
| PIG-Wa | 1 | -0.518 | 37639 | 40149 |
| COX6AL2 | 1 | 0.488 | 89173 | 70493 |
| COX6AL2 | 2 | -0.0292 | 57477 | 51338 |

The list goes on, starting with the last 8 of the part before.
| gene knocked down | reagent | mean Z score | ATP luminescence, replicate 1 | ATP luminescence, replicate 2 |
| --- | --- | --- | --- | --- |
| CCAP-R | 3 | 0.202 | 63101 | 65948 |
| Rh5 | 1 | -0.213 | 50429 | 56187 |
| Rh5 | 2 | 0.214 | 58092 | 63119 |
| mthl2 | 1 | -0.287 | 70665 | 57940 |
| mthl2 | 2 | -0.54 | 43474 | 50315 |
| PIG-Wa | 1 | -0.518 | 37639 | 40149 |
| COX6AL2 | 1 | 0.488 | 89173 | 70493 |
| COX6AL2 | 2 | -0.0292 | 57477 | 51338 |
| ZnT86D | 1 | -0.603 | 31982 | 47527 |
| Octbeta1R | 1 | -0.00046 | 35751 | 57339 |
| Octbeta1R | 2 | -0.177 | 46331 | 44840 |
| app | 1 | 0.116 | 42611 | 42349 |
| app | 2 | 0.433 | 65434 | 64971 |
| CG31600 | 1 | -0.0289 | 48303 | 47480 |
| CG31600 | 2 | 0.0527 | 57511 | 56379 |
| Or1a | 1 | -0.331 | 58369 | 62810 |
| Or1a | 2 | -0.272 | 52967 | 43914 |
| Nup58 | 1 | 1.1 | 59174 | 72071 |
| Nup58 | 2 | 2.13 (active) | 91945 | 87697 |
| S | 1 | 0.00783 | 44480 | 64439 |
| S | 2 | -0.0546 | 55788 | 41874 |
| CG14605 | 1 | 0.0169 | 75640 | 60238 |
| CG14605 | 2 | 0.0866 | 61181 | 64302 |
| Gr58a | 1 | 0.194 | 39127 | 48989 |
| CG15814 | 1 | 0.759 | 55556 | 54682 |
| CG15814 | 2 | -0.47 | 50549 | 51926 |
| out | 1 | -0.479 | 40331 | 41685 |
| out | 2 | 0.0921 | 63136 | 62484 |
| CG5880 | 1 | 0.111 | 42868 | 50669 |
| CG5880 | 2 | -0.254 | 53327 | 51887 |
| CG18609 | 1 | 0.188 | 72706 | 76513 |
| CG18609 | 2 | 0.284 | 67097 | 68675 |
| mthl1 | 1 | 0.164 | 45491 | 44874 |
| mthl1 | 2 | 1.37 | 77199 | 81076 |
| Fad2 | 1 | 1.88 (active) | 1.16e5 | 85862 |
| Fad2 | 2 | -0.705 | 43813 | 48271 |
| CG6659 | 1 | -0.453 | 38452 | 42361 |
| CG6659 | 2 | -0.0175 | 55899 | 56048 |
| Desat1 | 1 | 0.143 | 52624 | 58471 |
| Tsp33B | 1 | -0.511 | 41309 | 37245 |
| Tsp33B | 2 | -0.888 | 53361 | 41933 |
| CG3285 | 1 | -0.198 | 49795 | 57278 |
| rasp | 1 | 0.0585 | 72500 | 64490 |
| rasp | 2 | 0.233 | 59620 | 59391 |
| Tpc2 | 1 | -0.848 | 26119 | 37896 |
| CG42818 | 1 | -0.574 | 43399 | 35976 |
| CG1662 | 1 | -0.104 | 43005 | 44240 |
| Ca-alpha1D | 1 | -0.104 | 50909 | 58849 |
| Ca-alpha1D | 2 | -0.0628 | 59432 | 57477 |
| CG9743 | 1 | 0.453 | 74809 | 72277 |
| CG9743 | 2 | 0.148 | 66754 | 60529 |
| Tsp42Ei | 1 | 0.116 | 79223 | 76702 |
| Tsp42Ei | 2 | -0.121 | 60666 | 52761 |
